Measured values published in publication doi:10.1101/595702.
These are yes or no findings as the source states them, for the method shown. Binding seen in cells or lysates may run through a third protein. These calls come from enrichment with a bait or labelling near it, and not all partners need be listed. Sequences can lack the tags named with a protein.

Protein sequences, listed by entry. Tags and fused reporters are not part of them.
UniProt Q15154: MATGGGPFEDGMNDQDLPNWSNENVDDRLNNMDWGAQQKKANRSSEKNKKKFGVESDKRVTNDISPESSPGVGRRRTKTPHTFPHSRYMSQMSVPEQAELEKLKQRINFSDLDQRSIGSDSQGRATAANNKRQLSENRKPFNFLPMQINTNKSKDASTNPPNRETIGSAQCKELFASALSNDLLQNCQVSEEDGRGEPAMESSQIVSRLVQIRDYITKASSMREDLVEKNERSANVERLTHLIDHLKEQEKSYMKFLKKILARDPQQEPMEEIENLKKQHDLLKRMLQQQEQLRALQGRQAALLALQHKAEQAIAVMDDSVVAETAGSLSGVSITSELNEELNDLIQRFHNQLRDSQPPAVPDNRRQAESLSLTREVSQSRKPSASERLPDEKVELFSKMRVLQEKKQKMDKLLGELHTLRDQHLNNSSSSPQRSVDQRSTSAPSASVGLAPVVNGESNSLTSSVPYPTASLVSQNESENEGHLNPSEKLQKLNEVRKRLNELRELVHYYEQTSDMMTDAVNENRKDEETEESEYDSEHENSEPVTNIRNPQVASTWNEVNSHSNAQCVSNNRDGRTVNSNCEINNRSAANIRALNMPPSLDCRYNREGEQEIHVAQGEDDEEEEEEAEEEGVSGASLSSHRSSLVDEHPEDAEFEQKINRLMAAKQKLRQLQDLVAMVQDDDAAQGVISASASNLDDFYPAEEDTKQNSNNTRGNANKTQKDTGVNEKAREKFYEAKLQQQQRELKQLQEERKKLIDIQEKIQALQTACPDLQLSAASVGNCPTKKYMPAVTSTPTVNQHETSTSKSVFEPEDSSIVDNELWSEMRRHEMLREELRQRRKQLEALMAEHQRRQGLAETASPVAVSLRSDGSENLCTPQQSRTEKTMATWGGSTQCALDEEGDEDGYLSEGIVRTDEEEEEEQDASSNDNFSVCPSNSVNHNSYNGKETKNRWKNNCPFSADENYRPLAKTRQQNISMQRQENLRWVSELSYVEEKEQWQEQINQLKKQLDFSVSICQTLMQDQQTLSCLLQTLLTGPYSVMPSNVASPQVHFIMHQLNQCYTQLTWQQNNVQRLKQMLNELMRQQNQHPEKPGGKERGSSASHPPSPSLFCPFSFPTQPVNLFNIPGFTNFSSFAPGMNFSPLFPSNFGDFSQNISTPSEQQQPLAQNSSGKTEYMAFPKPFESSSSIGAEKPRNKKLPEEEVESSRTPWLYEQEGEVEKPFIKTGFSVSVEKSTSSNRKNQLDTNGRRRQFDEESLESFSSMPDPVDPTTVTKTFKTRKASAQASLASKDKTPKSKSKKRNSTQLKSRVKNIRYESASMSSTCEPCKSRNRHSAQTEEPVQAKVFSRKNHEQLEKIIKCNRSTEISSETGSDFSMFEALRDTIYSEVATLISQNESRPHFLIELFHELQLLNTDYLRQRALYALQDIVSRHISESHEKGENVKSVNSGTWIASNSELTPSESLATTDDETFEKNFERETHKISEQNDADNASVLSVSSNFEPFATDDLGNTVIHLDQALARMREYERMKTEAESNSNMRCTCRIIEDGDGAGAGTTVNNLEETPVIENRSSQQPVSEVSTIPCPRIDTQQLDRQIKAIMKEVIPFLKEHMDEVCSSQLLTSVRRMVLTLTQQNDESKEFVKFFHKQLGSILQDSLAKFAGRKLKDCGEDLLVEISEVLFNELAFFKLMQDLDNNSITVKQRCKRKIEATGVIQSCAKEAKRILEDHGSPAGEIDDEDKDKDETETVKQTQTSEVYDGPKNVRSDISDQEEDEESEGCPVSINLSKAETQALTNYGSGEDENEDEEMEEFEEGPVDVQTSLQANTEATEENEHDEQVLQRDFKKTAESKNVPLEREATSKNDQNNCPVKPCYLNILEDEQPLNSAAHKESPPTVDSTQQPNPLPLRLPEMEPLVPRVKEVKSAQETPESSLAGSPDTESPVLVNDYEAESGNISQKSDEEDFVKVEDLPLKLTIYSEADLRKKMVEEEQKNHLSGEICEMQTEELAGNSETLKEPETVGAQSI

Molecular target: T1, FLAG-tagged TCHP (Trichoplein), bait of the co-IP with mass spectrometry (human) (UniProt Q9BT92)
T1 sequence: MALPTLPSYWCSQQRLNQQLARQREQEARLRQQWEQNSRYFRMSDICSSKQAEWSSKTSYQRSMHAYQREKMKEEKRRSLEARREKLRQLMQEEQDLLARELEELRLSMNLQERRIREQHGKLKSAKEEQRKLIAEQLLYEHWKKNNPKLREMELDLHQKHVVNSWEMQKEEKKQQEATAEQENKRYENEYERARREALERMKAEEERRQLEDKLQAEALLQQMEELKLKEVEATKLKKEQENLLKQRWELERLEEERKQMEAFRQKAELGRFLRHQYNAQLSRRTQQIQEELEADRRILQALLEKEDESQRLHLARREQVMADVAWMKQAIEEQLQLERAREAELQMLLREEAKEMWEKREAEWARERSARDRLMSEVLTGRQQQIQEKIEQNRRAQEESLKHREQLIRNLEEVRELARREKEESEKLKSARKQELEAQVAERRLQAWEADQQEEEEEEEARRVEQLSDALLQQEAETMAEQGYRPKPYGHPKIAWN
Test: affinity purification with mass spectrometry

PCM1, endogenous in HEK293 cells (from UniProt Q15154 1-2024)
binding: binds
